Library screening results

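Viability assay of Plasmodium falciparum sporozoites; the read-out is not stated. The concentration is filed as 10 mM, unlikely as a test dose, so the dose is not known. The record gives no direction; compounds that gave an IC50 in retests scored well above the rest, so higher reads as lower viability. Strong results were mostly tested again. Size under these conditions: about 34,000 compounds, about 280 of them at 50% or above in at least one test.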

Values are the deposited “Percent Effect”, in %. The record does not define 0% and 100%; most values in the screen are far below 50% and negative numbers occur (in some assays of this library far below -100). The compounds are a random part of those screened. Two or more numbers in one place are separate tests of the same structure; such repeats can differ widely.

compound,effect
CN(C)c1cc(CNC(=O)Nc2ccc(C#N)cc2)ccn1,6.415%
Cc1ccc(-c2cc(C(=O)NCCN3CCCS3(=O)=O)[nH]n2)o1,-0.1959%
CCn1c(N)nc2cc(C(=O)NCCc3sccc3C)cnc21,52.69% & 14.43% & 29.16%
CN1CC(=O)N(c2cccnc2)CC12CCN(C(=O)c1cccn1C)C2.O=C(O)C(F)(F)F.O=C(O)C(F)(F)F (stereo not shown),12.98%
Cc1ccc(S(=O)(=O)N2CCOCC2C#N)cc1Br (stereo not shown),-3.403%
CN(C)c1nccc(NCc2cc(-c3ccco3)n[nH]2)n1,1.778%
Cc1occc1C(=O)N1Cc2nccn2CC(CN(C)C)C1.O=C(O)C(F)(F)F (stereo not shown),-3.212%
O=C(NCCN1CCOCC1)Nc1cnc2cc(Cl)ccc2c1O,11.25%
N#Cc1ccc(S(=O)(=O)N2CSCC2C(=O)NCC(F)(F)F)cc1 (stereo not shown),7.672%
Cc1ccccc1N1CCN(C(=O)c2cnn(C(C)C)c2)C(C)C1 (stereo not shown),-12.46%
Cc1ccc2cc(C3(O)CCN(C(=O)CN4CCCC4)CC3)ccc2n1,-8.959%
CC(=O)N1N=C(c2cccs2)OC1C(=O)NCc1ccc(C)o1 (stereo not shown),-4.518%
CCn1ccnc1CN1C[C@@H](CN2CCCC2)[C@@H](CO)C1,1.059%
CCn1cc(S(=O)(=O)NC2(CN3CCOCC3)CCCCC2)c(C)n1,4.456%
COc1ccccc1C(=O)NC(CC(=O)O)c1cccs1 (stereo not shown),-95.47%
CCOCc1cnc2n1CCN(C(=O)c1cn(C)c3ccccc13)C2C (stereo not shown),7.595%
Cc1ccc(C(=O)N2CCn3cc(CN4CCCCC4)nc3C2)o1.O=C(O)C(F)(F)F,5.028%
Cn1cnnc1C1CCN(C(=O)CCCOc2ccccc2F)CC1,83.01% & 69.05% & 60.83%
CCN1CCOCC2(CCCN(C(=O)c3ccncc3F)C2)C1.O=C(O)C(F)(F)F (stereo not shown),1.805%
COCCC(=O)N1CCCC(CCC(=O)NCc2ccccc2F)C1 (stereo not shown),-6.661%
Cl.[H][C@]12CCCN[C@@]1([H])CN(C(=O)C(C)C)C2,3.08%
COc1cc(CNCCn2cc(C)cn2)cc2c1OCCO2,8.75%
O=C(O)C(F)(F)F.[H][C@@]12OCCN(C(=O)COc3ccccc3)[C@@]1([H])CC[C@H]2OCCN(C)C,-2.514%
Nc1cc2c(nn1)CCN(C(=O)Cc1ccc3c(c1)CCCC3)C2,-8.229%
Cc1cccc(N(C)S(=O)(=O)c2cc(C(=O)O)cs2)c1,2.301%
Cc1n[nH]c(C2CN(C(=O)c3cc(C4CC4)on3)CCO2)n1 (stereo not shown),17.1%
Cc1cccc(NC2CCN(C(=O)Nc3cc(F)ccc3F)CC2)n1,-1.639% & 25.18% & 4.994%
O=C(Cc1ccccc1)N1CC(=O)N(Cc2ccco2)CC(O)C1 (stereo not shown),-43.32%
Cc1cn2c(n1)CCC(NC(=O)c1ccc(OCC3CC3)nc1)C2 (stereo not shown),-9.989%
CCc1nc(C2CCCN2CC(=O)N2CCCc3ccccc32)no1 (stereo not shown),6.626%
CS(=O)(=O)CCN1CCc2c(ncn2C2CC2)C1,-29.01% & -34.33%
CC(C)c1nc(NC(=O)CCCn2cccc2)n(C)n1,-7.692%
O=C(O)C(F)(F)F.[H][C@@]12CN(C(=O)C(C)C)CCC[C@]1(C(=O)N(C)C)CN(c1ccccn1)C2,24.28%
CCn1cc2c(n1)C(COC)CN(C(=O)COc1ccccc1C)C2 (stereo not shown),8.389%
CC(C)N1CCC(Cc2cc(-c3cc(F)ccc3C(=O)O)ncn2)C1 (stereo not shown),9.127%
O=C(CCc1ccsc1)NCC1CCN(c2ccccc2)C1 (stereo not shown),-0.224%
CCc1nc(C2CCCN2CC(=O)N2CCc3ccccc32)no1 (stereo not shown),11.62%
Cc1cc(C)nc(Nc2cc(C)nc(C3CCN(C(=O)CO)C3)n2)n1 (stereo not shown),1.683%
O=C(O)C(F)(F)F.c1cnc(N2CCC3(CCCN(CC4CC4)C3)CC2)nc1,-16.21%
COC(=O)C(NC(=O)C(C)C)c1cc(F)ccc1F (stereo not shown),0%
CC(=O)NC(C)c1ccc(OCC2CC2)c(F)c1 (stereo not shown),-19.5%
CC(C)c1ccc(NC(=O)Cn2cc(I)cn2)cc1,-0.8174% & -36.1% & -38.98%
O=C(NCC1Cn2nnc(-c3cccc(F)c3)c2CO1)c1ccc[nH]1 (stereo not shown),-29.44%
COCCN(C)C(=O)Nc1ccc2c(ccn2CCOC)c1,21.08%
Cc1cnc(-c2nc(C3CCN(Cc4ccccc4O)CC3)no2)cn1,-2.072%
COCCC(=O)N1CCN(C)c2ncccc2C1,3.926%
Cn1cc(C(=O)N2CCC(Cc3nccs3)CC2)cn1,1.413%
CCS(=O)(=O)N1CCC(NC(=O)c2ccccc2O)CC1,1.465%
CC(C)N(Cc1ccc(C#N)cc1)C(=O)Nc1ccncc1,-9.677%
CN(C)Cc1nc2c(o1)CN(S(=O)(=O)c1cccs1)C2.O=C(O)C(F)(F)F,3.038%
Cc1csc(Nc2nccnc2C2CCCN2S(C)(=O)=O)n1 (stereo not shown),7.364%
Cc1nn(C)cc1CN1CCN(CC2(c3ccccc3)CC2)CC1,-22.99%
CCS(=O)(=O)N1CCOC2(CCCN(c3ccc(C)nn3)C2)C1.O=C(O)C(F)(F)F (stereo not shown),0.3247%
Cc1ccc(S(=O)(=O)N2CSCC2C(=O)NCC(F)(F)F)cc1C (stereo not shown),17.63%
CN(CCc1ccccn1)C(=O)CCC1CCCN(c2ncccn2)C1 (stereo not shown),-20.17%
CCOC(=O)CN1CCC2(CC1)CC(=O)c1ccc3ccccc3c1O2,55.18% & 17.37% & 38.27%
O=C(O)C(F)(F)F.[H][C@@]12CN(Cc3csc(C)n3)C[C@]1([H])CN(C(=O)c1cnccn1)C2,2.526%
CCNC(=O)c1nnn(Cc2ccccc2)c1OC,-8.553%
Cn1ncc2c1C(COCC1CC1)CN(Cc1ccoc1)C2 (stereo not shown),-14.63%
Cc1cnn(CC2CN(Cc3nnc(-c4ccccc4)o3)CCO2)c1 (stereo not shown),-18.47%
COCCNC(=O)C1CN(Cc2cccnc2)Cc2ccnn2C1.O=C(O)C(F)(F)F.O=C(O)C(F)(F)F.O=C(O)C(F)(F)F (stereo not shown),13.3%
O=C(N1CCCC(n2cncn2)C1)C1(c2cccc(F)c2)CC1 (stereo not shown),0.518%
COc1cccc(CC(=O)N2CCC(NCc3c[nH]nc3C)CC2)c1,-0.6256%
[H][C@]12COC[C@@H](NS(C)(=O)=O)[C@@]1([H])CN(Cc1ccoc1)C2,15.68%
COc1ccc2c(O)c(NC(=O)NCC3CC3)cnc2c1,-5.095%

Repeated from the top, 7 entries:

- CN(C)c1cc(CNC(=O)Nc2ccc(C#N)cc2)ccn1 : 6.415%
- Cc1ccc(-c2cc(C(=O)NCCN3CCCS3(=O)=O)[nH]n2)o1 : -0.1959%
- CCn1c(N)nc2cc(C(=O)NCCc3sccc3C)cnc21 : 52.69% & 14.43% & 29.16%
- CN1CC(=O)N(c2cccnc2)CC12CCN(C(=O)c1cccn1C)C2.O=C(O)C(F)(F)F.O=C(O)C(F)(F)F (stereo not shown) : 12.98%
- Cc1ccc(S(=O)(=O)N2CCOCC2C#N)cc1Br (stereo not shown) : -3.403%
- CN(C)c1nccc(NCc2cc(-c3ccco3)n[nH]2)n1 : 1.778%
- Cc1occc1C(=O)N1Cc2nccn2CC(CN(C)C)C1.O=C(O)C(F)(F)F (stereo not shown) : -3.212%

The values are deposited in ChEMBL (CHEMBL3988442, “University of Dundee, Small-Polar-MMV Screening Library” (2021)).